Source: US10596218B2, “Coix seed oil containing 16 glycerides, and pharmaceutical preparation and use thereof” (ZHEJIANG KANGLAITE GROUP CO., LTD., priority 2014, dated 2020)
≈ marks a conversion by molar mass, not a printed value.

System: MCF-7 (human breast cancer cells)
Test: MTT inhibition of cell growth in vitro, MCF-7
Assay type: cell-based
Details: MCF7, MCF-7, MTT, 48 h, read-out: IC50 values of samples in vitro
Description: (1) Cell lines: PANC-1 (human pancreatic cancer cells), SKOV3 (human ovarian cancer cells), MCF-7 (human breast cancer cells), Bcap-37 (human breast cancer cells), SMMC-7721 (human hepatic cancer cells), HepG-2 (human hepatic cancer cells), A549 (human lung cancer cells) and H460 (human lung cancer cells), storaged and passaged maintainably in Research and Evaluation Center for Pharmacology, Shanghai Institute of Pharmaceutical Industry;
The inhibition effects of samples on the above-mentioned cell lines were detected by using MTT method. The specific procedures were as follows: […]
(4) Cells in a logarithmic growth stage were trypsinized and washed, then re-suspended in the medium containing 10% calf serum. The number of living cells was counted in Trypan blue dye exclusion method and cell suspensions were adjusted into a density of 2×10^5 cell/ml. […]
(7) 100 μl of crystal dissolving solution was added into each well and cells were incubated continuously in the incubator overnight, so as to dissolve the resulted formazan crystals sufficiently. Then, the absorbance value was measured at 570 nm for each well.
(8) Based on absorbance values, inhibition rates on the cell growth were calculated for sample groups of various concentrations. The calculation formula was as follows: (1−mean absorbance of experimental wells/mean absorbance of control wells)×100%

IC50: 0.34 µg/mL (≈ 0.398 µM)
SMILES: CC(=O)O[C@H]1C(=O)[C@@]2(C)[C@H]([C@H](OC(=O)c3ccccc3)[C@]3(O)C[C@H](OC(=O)[C@H](O)[C@@H](NC(=O)c4ccccc4)c4ccccc4)C(C)=C1C3(C)C)[C@]1(OC(C)=O)CO[C@@H]1C[C@@H]2O [Taxol]
